From patent EP0261503B1, “Heterocyclic amido derivatives of substituted benzoic acids and therapeutic compositions which contain them as active principle” (VALEAS S.p.A. INDUSTRIA CHIMICA E FARMACEUTICA, priority 1986, dated 1988)
At least one structure is not confirmed: it was looked up by name or label, or the drawing left a doubt.

Test system: passive cutaneous anaphylaxis
Assay: passive cutaneous anaphylaxis test (PCA) in the rat, oral administration
Type: in vivo
Conditions: PCA test on the rat; oral administration 30 minutes before antigen challenge
Method: The products of general formula (I) listed in Table 1 were subjected to a first pharmacological screening to evaluate their activity after oral administration in the passive cutaneous anaphylaxis test (PCA) in the rat in accordance with Goose J. and Blair A.M.J.N. (Immunology, 16, 749-760, 1969). Serum, obtained from rats actively sensitized with ovalbumin and suitably diluted, was injected intradermally into the shave back of male Sprague Dawley rats, and after 24 hours these were treated intravenously with a solution of ovalbumin and Evans blue. Thirty minutes after the antigen challenge, the animals were sacrificed and the diameter and intensity of the blue halo which has formed in the intradermal injection site was measured. The compounds according to the invention, and also tranilast (N-3ʹ, 4ʹ-dimethoxycinnamoyl) anthranilic acid) used as reference standard, were dissolved-suspended in suitable solvents (carboxymethylcellulose, gum arabic, DMSO etc.) and administered orally thirty minutes before the antigen challenge. Table 2 lists the ED₅₀ values and the relative confidence limits at p = 0.05.

SMILES | ED₅₀
CCOC(=O)C(=O)Nc1c(OC)cccc1C(=O)Nc1sc(C)cc1C(=O)OCC [Compound 18, 3-THIOPHENE CARBOXYLIC ACID, 2-[[2-AMINO(OXOACETIC ACID ETHYL ESTER)-3-METHOXY BENZOYL] AMINO]-5-METHYL, ETHYL ESTER] | 2.8 x 10⁻³ mmoles/kg/os
COc1cccc(C(=O)Nc2sc(C)cc2C(=O)O)c1N [Compound 16, 3-THIOPHENE CARBOXYLIC ACID, 2-[(2-AMINO-3-METHOXY BENZOYL)AMINO]-5-METHYL] | 7.8 x 10⁻³ mmoles/kg/os
